Some of these results come from one statement about several compounds together. Blank lines part the entries; values can stand above or below the compound they belong to.
Tests used:
[1] = system: Capan-1 (K-Ras G12V); assay: CellTiter-Glo cell viability assay, Capan-1; format: cell-based, human; conditions: 5-day treatment, Capan-1 versus A375
[2] = molecular target: K-RasG12V (Homo sapiens, UniProt P01116+P62937, G12V); assay: Disruption of BRAF RBD interaction with K-Ras (TR-FRET / MOA assay), K-RasG12V; format: biochemical; conditions: TR-FRET with cyclophilin A and GST-BRAF RBD, read-out: IC50 with respect to K-RasG12V (disruption of BRAF RBD interaction)

Amino acid sequences for entries named in this document (tags omitted). A change or cut given only in a name is not applied to a line headed by its entry. Residues count along the entry.
UniProt P01116, 1-188 isoform P01116-2 G12V: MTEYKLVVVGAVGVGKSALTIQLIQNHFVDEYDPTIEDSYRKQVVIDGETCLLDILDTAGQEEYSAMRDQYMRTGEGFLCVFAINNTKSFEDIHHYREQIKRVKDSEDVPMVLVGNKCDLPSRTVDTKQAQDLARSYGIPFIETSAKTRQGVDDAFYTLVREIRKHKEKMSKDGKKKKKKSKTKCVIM
UniProt P62937, whole entry: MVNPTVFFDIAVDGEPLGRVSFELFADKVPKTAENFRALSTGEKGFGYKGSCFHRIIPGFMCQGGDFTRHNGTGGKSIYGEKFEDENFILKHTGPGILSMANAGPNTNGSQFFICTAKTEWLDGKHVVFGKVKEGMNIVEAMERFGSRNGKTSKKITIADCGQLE

Structure (SMILES): CO[C@@H](C)c1ncccc1-c1c2c3cc(ccc3n1CCOC1CCOCC1)-c1csc(n1)[C@@H](OCC(F)F)[C@H](NC(=O)[C@@H]1[C@@H](C)[C@H]1c1ccccn1)C(=O)N1CCC[C@H](N1)C(=O)OCC(C)(C)C2 (racemic) [Example A677]
- decrease in cell viability with respect to KRAS G12V (Capan-1) versus wild-type KRAS (A375) [1]: greater decrease in cell viability
- IC50 [2]: < 1 µM

Structure (SMILES): CCO[C@@H]1c2nc(cs2)-c2ccc3c(c2)c(c(-c2cc(N4CCN(C5CC5)CC4)cnc2[C@H](C)OC)n3CCOC2COC2)CC(C)(C)COC(=O)C2CCCN(N2)C(=O)[C@H]1NC(=O)[C@@H]1[C@@H](C)[C@H]1c1cocn1 (mixture of isomers) [Example A678]
- decrease in cell viability with respect to KRAS G12V (Capan-1) versus wild-type KRAS (A375) [1]: greater decrease in cell viability
- IC50 [2]: < 1 µM

Structure (SMILES): CO[C@@H](C)c1ncc(N2CCN(C3CC3)CC2)cc1-c1c2c3cc(ccc3n1CCOC1COC1)-c1csc(n1)[C@@H](N1CCOCC1)[C@H](NC(=O)[C@@H]1[C@@H](C)[C@H]1c1cocn1)C(=O)N1CCC[C@H](N1)C(=O)OCC(C)(C)C2 (racemic) [Example A679]
- decrease in cell viability with respect to KRAS G12V (Capan-1) versus wild-type KRAS (A375) [1]: greater decrease in cell viability
- IC50 [2]: < 1 µM

Structure (SMILES): CO[C@@H](C)c1ncc(N2CCN(C3CC3)CC2)cc1-c1c2c3cc(ccc3n1CCOC1CCOCC1)-c1csc(n1)[C@@H](N1CC[C@@H](C#N)C1)[C@H](NC(=O)[C@@H]1CCO1)C(=O)N1CCC[C@H](N1)C(=O)OCC(C)(C)C2 (racemic) [Example A680]
- decrease in cell viability with respect to KRAS G12V (Capan-1) versus wild-type KRAS (A375) [1]: greater decrease in cell viability
- IC50 [2]: < 1 µM

Structure (SMILES): CO[C@@H](C)c1ncc(N2CCN(C3CC3)CC2)cc1-c1c2c3cc(ccc3n1CCOC1CCOCC1)-c1csc(n1)[C@@H](N1CC[C@H](C#N)C1)[C@H](NC(=O)[C@@H]1[C@@H](C)[C@H]1c1cocn1)C(=O)N1CCCC(N1)C(=O)OCC(C)(C)C2 (mixture of isomers) [Example A681]
- decrease in cell viability with respect to KRAS G12V (Capan-1) versus wild-type KRAS (A375) [1]: greater decrease in cell viability
- IC50 [2]: < 1 µM

Structure (SMILES): CCO[C@@H]1c2nc(cs2)-c2ccc3c(c2)c(c(-c2cc(N4CCN(C5CC5)CC4)cnc2[C@H](C)OC)n3CCOC2CCOCC2)CC(C)(C)COC(=O)[C@@H]2CCCN(N2)C(=O)[C@H]1NC(=O)[C@@H]1[C@@H](C)[C@H]1[C@H]1CCCO1 (racemic) [Example A683]
- decrease in cell viability with respect to KRAS G12V (Capan-1) versus wild-type KRAS (A375) [1]: greater decrease in cell viability
- IC50 [2]: < 1 µM

Structure (SMILES): CO[C@@H](C)c1ncccc1-c1c2c3cc(ccc3n1C1COC1)-c1csc(n1)[C@@H](N1CCOCC1)[C@H](NC(=O)N1CC[C@H]1C)C(=O)N1CCC[C@H](N1)C(=O)OCC(C)(C)C2 (racemic) [Example A684]
- decrease in cell viability with respect to KRAS G12V (Capan-1) versus wild-type KRAS (A375) [1]: greater decrease in cell viability
- IC50 [2]: < 1 µM

Structure (SMILES): CO[C@@H](C)c1ncc(N2CCN(C3CC3)CC2)cc1-c1c2c3cc(ccc3n1CCOC1CCOCC1)-c1nc(co1)[C@@H](OCC(F)F)[C@H](NC(=O)[C@@H]1[C@H](C)[C@@H]1C(C)C)C(=O)N1CCC[C@H](N1)C(=O)OCC(C)(C)C2 (racemic) [Example A686]
- decrease in cell viability with respect to KRAS G12V (Capan-1) versus wild-type KRAS (A375) [1]: greater decrease in cell viability
- IC50 [2]: < 1 µM

Structure (SMILES): CCO[C@@H]1c2nc(cs2)-c2ccc3c(c2)c(c(-c2cc(N4CCN(C)CC4)cnc2[C@H](C)OC)n3CCOC(C)C)CC(C)(C)COC(=O)[C@@H]2CCCN(N2)C(=O)[C@H]1NC(=O)C12CCC(C1)C(C)O2 (mixture of isomers) [Example A687]
- decrease in cell viability with respect to KRAS G12V (Capan-1) versus wild-type KRAS (A375) [1]: greater decrease in cell viability
- IC50 [2]: < 1 µM

Structure (SMILES): CCO[C@@H]1c2nc(cs2)-c2ccc3c(c2)c(c(-c2cc(N4CCN(C)CC4)cnc2[C@H](C)OC)n3CCOC(C)C)CC(C)(C)COC(=O)[C@@H]2CCCN(N2)C(=O)[C@H]1NC(=O)C12CCC(CO1)C2 (racemic) [Example A688]
- decrease in cell viability with respect to KRAS G12V (Capan-1) versus wild-type KRAS (A375) [1]: greater decrease in cell viability
- IC50 [2]: < 1 µM

Structure (SMILES): CO[C@@H](C)c1ncccc1-c1c2c3cc(ccc3n1CCOC1CCOCC1)-c1csc(n1)[C@@H](N1CCCC1)[C@H](NC(=O)C13CC(CO1)C3)C(=O)N1CCC[C@H](N1)C(=O)OCC(C)(C)C2 (racemic) [Example A689]
- decrease in cell viability with respect to KRAS G12V (Capan-1) versus wild-type KRAS (A375) [1]: greater decrease in cell viability
- IC50 [2]: < 1 µM

Structure (SMILES): CO[C@@H](C)c1ncccc1-c1c2c3cc(ccc3n1CCOC1CCOCC1)-c1csc(n1)[C@@H](N1CCCC1)[C@H](NC(=O)[C@H]1[C@H](C)[C@@H]1C)C(=O)N1CCC[C@H](N1)C(=O)OCC(C)(C)C2 (racemic) [Example A690]
- decrease in cell viability with respect to KRAS G12V (Capan-1) versus wild-type KRAS (A375) [1]: greater decrease in cell viability
- IC50 [2]: < 1 µM

Structure (SMILES): CO[C@@H](C)c1ncccc1-c1c2c3cc(ccc3n1CCOC1CCOCC1)-c1csc(n1)[C@@H](N1CCOCC1)[C@H](NC(=O)[C@H]1[C@H](C)[C@@H]1C)C(=O)N1CCC[C@H](N1)C(=O)OCC(C)(C)C2 (racemic) [Example A691]
- decrease in cell viability with respect to KRAS G12V (Capan-1) versus wild-type KRAS (A375) [1]: greater decrease in cell viability
- IC50 [2]: < 1 µM

Structure (SMILES): CO[C@@H](C)c1ncc(N2CCN(C3COC3)CC2)cc1-c1c2c3cc(ccc3n1CCOC1CCOCC1)-c1nc(co1)[C@@H](OCC(F)F)[C@H](NC(=O)[C@@H]1[C@@H](C)[C@H]1C(C)C)C(=O)N1CCC[C@H](N1)C(=O)OCC(C)(C)C2 (racemic) [Example A692]
- decrease in cell viability with respect to KRAS G12V (Capan-1) versus wild-type KRAS (A375) [1]: greater decrease in cell viability
- IC50 [2]: < 1 µM

Structure (SMILES): CO[C@@H](C)c1ncc(N2CCN(C3COC3)CC2)cc1-c1c2c3cc(ccc3n1CCOC1CCOCC1)-c1nc(co1)[C@@H](OCC(F)F)[C@H](NC(=O)[C@@H]1[C@H](C)[C@@H]1C(C)C)C(=O)N1CCC[C@H](N1)C(=O)OCC(C)(C)C2 (racemic) [Example A693]
- decrease in cell viability with respect to KRAS G12V (Capan-1) versus wild-type KRAS (A375) [1]: greater decrease in cell viability
- IC50 [2]: < 1 µM

Structure (SMILES): CO[C@@H](C)c1ncc(N2CCN(C3COC3)CC2)cc1-c1c2c3cc(ccc3n1CCOC1CCOCC1)-c1nc(co1)[C@@H](OCC(F)F)[C@H](NC(=O)C1[C@@H](c3cscn3)[C@H]1C)C(=O)N1CCC[C@H](N1)C(=O)OCC(C)(C)C2 (mixture of isomers) [Example A694]
- decrease in cell viability with respect to KRAS G12V (Capan-1) versus wild-type KRAS (A375) [1]: greater decrease in cell viability
- IC50 [2]: < 1 µM

More lines, main results first:

- IC50 [2]: < 1 µM
Structure (SMILES): CO[C@@H](C)c1ncc(N2CCN(C3CC3)CC2)cc1-c1c2c3cc(ccc3n1CCOC1CCOCC1)-c1nc(co1)[C@@H](OCC(F)F)[C@H](NC(=O)[C@H]1[C@H](C)[C@@H]1[C@H]1CCCO1)C(=O)N1CCC[C@H](N1)C(=O)OCC(C)(C)C2 (racemic) [Example A665]
- decrease in cell viability with respect to KRAS G12V (Capan-1) versus wild-type KRAS (A375) [1]: greater decrease in cell viability

- IC50 [2]: < 1 µM
Structure (SMILES): CCO[C@@H]1c2coc(n2)-c2ccc3c(c2)c(c(-c2cc(N4CCN(C5CC5)CC4)cnc2[C@H](C)OC)n3CCOC2CCOCC2)CC(C)(C)COC(=O)[C@@H]2CCCN(N2)C(=O)[C@H]1NC(=O)[C@@H]1[C@@H](C)[C@H]1[C@H]1CCCO1 (racemic) [Example A666]
- decrease in cell viability with respect to KRAS G12V (Capan-1) versus wild-type KRAS (A375) [1]: greater decrease in cell viability

- IC50 [2]: < 1 µM
Structure (SMILES): CO[C@@H](C)c1ncc(N2CCN(C3CC3)CC2)cc1-c1c2c3cc(ccc3n1CCOC1CCOCC1)-c1csc(n1)[C@@H](N1CCOCC1)[C@H](NC(=O)[C@H]1[C@H](C)[C@@H]1[C@H]1CCCO1)C(=O)N1CCC[C@H](N1)C(=O)OCC(C)(C)C2 (racemic) [Example A667]
- decrease in cell viability with respect to KRAS G12V (Capan-1) versus wild-type KRAS (A375) [1]: greater decrease in cell viability

- IC50 [2]: < 1 µM
Structure (SMILES): CO[C@@H](C)c1ncc(N2CCN(C3CC3)CC2)cc1-c1c2c3cc(ccc3n1CCOC1CCOCC1)-c1csc(n1)[C@@H](N1CCOCC1)[C@H](NC(=O)[C@@H]1[C@@H](C)[C@H]1[C@H]1CCCO1)C(=O)N1CCC[C@H](N1)C(=O)OCC(C)(C)C2 (racemic) [Example A668]
- decrease in cell viability with respect to KRAS G12V (Capan-1) versus wild-type KRAS (A375) [1]: greater decrease in cell viability

- IC50 [2]: < 1 µM
Structure (SMILES): CO[C@@H](C)c1ncc(N2CCN(C)CC2)cc1-c1c2c3cc(ccc3n1CCOC(C)C)-c1nc(co1)[C@@H](OCC(F)F)[C@H](NC(=O)N1C[C@@H]3COCCC31)C(=O)N1CCC[C@H](N1)C(=O)OCC(C)(C)C2 (mixture of isomers) [Example A669]
- decrease in cell viability with respect to KRAS G12V (Capan-1) versus wild-type KRAS (A375) [1]: greater decrease in cell viability

- IC50 [2]: < 1 µM
Structure (SMILES): CCO[C@@H]1c2nc(cs2)-c2ccc3c(c2)c(c(-c2cc(N4CCN(C5CC5)CC4)cnc2[C@H](C)OC)n3CCOC2CCS(=O)(=O)CC2)CC(C)(C)COC(=O)[C@@H]2CCCN(N2)C(=O)[C@H]1NC(=O)C1[C@@H](C)[C@H]1c1cocn1 (mixture of isomers) [Example A670]
- decrease in cell viability with respect to KRAS G12V (Capan-1) versus wild-type KRAS (A375) [1]: greater decrease in cell viability

- IC50 [2]: < 1 µM
Structure (SMILES): CO[C@@H](C)c1ncccc1-c1c2c3cc(ccc3n1CCOC1CCOCC1)-c1csc(n1)[C@@H](OCC(F)F)[C@H](NC(=O)[C@@H]1[C@@H](C)[C@H]1c1ccncn1)C(=O)N1CCC[C@H](N1)C(=O)OCC(C)(C)C2 (racemic) [Example A671]
- decrease in cell viability with respect to KRAS G12V (Capan-1) versus wild-type KRAS (A375) [1]: greater decrease in cell viability

- IC50 [2]: < 1 µM
Structure (SMILES): CO[C@@H](C)c1ncccc1-c1c2c3cc(ccc3n1CCOC1CCOCC1)-c1csc(n1)[C@@H](N1CCCC1)[C@H](NC(=O)[C@@H]1[C@@H](C)[C@H]1c1ccncn1)C(=O)N1CCC[C@H](N1)C(=O)OCC(C)(C)C2 (racemic) [Example A672]
- decrease in cell viability with respect to KRAS G12V (Capan-1) versus wild-type KRAS (A375) [1]: greater decrease in cell viability

- IC50 [2]: < 1 µM
Structure (SMILES): CO[C@@H](C)c1ncccc1-c1c2c3cc(ccc3n1CCOC1CCOCC1)-c1csc(n1)[C@@H](N1CCOCC1)[C@H](NC(=O)[C@@H]1[C@@H](C)[C@H]1c1ccncn1)C(=O)N1CCC[C@H](N1)C(=O)OCC(C)(C)C2 (racemic) [Example A673]
- decrease in cell viability with respect to KRAS G12V (Capan-1) versus wild-type KRAS (A375) [1]: greater decrease in cell viability

- IC50 [2]: < 1 µM
Structure (SMILES): CO[C@@H](C)c1ncccc1-c1c2c3cc(ccc3n1CCOC1CCOCC1)-c1csc(n1)[C@@H](OCC(F)F)[C@H](NC(=O)[C@@H]1[C@@H](C)[C@H]1c1cocn1)C(=O)N1CCC[C@H](N1)C(=O)OCC(C)(C)C2 (racemic) [Example A676]
- decrease in cell viability with respect to KRAS G12V (Capan-1) versus wild-type KRAS (A375) [1]: greater decrease in cell viability

Reference: US20250154171A1, “RAS INHIBITORS” (Revolution Medicines, Inc., priority 2023, published 2025)
